# Results published in US20250249056A1, “CANCER THERAPIES COMPRISING A NUCLEAR EXPORT INHIBITOR AND AN ONCOLYTIC VIRUS” (priority 2022, published 2025).
# Read-outs that look alike come from different tables or passages of the source. The source gives many values for each of these; only a part stands here.
# System: Colo205 cells
# Assay type: cell-based, human
smiles,measurement,setting,value
O=C(/C=C\n1cnc(-c2cc(C(F)(F)F)cc(C(F)(F)F)c2)n1)NNc1cnccn1 [selinexor],"Differential protein expression, selinexor-treated nucleus vs control nucleus",protein MT-ND4 (P03905),0.448
same,"Differential protein expression, selinexor-treated nucleus vs control nucleus",protein MYB (P10242),0.457
same,"Differential protein expression, selinexor-treated nucleus vs control nucleus",protein MYO15B (Q96JP2),0.468
same,"Differential protein expression, selinexor-treated nucleus vs control nucleus",protein NADSYN1 (Q6IA69),0.01
same,"Differential protein expression, selinexor-treated nucleus vs control nucleus",protein NAGA (P17050),100
same,"Differential protein expression, selinexor-treated nucleus vs control nucleus",protein NBR1 (Q14596),4.965
same,"Differential protein expression, selinexor-treated nucleus vs control nucleus",protein NDC1 (Q9BTX1),0.469
same,"Differential protein expression, selinexor-treated nucleus vs control nucleus",protein NDUFA13 (Q9P0J0),0.458
same,"Differential protein expression, selinexor-treated nucleus vs control nucleus",protein NDUFAF4 (Q9P032),0.428
same,"Differential protein expression, selinexor-treated nucleus vs control nucleus",protein NDUFB6 (O95139),0.46
same,"Differential protein expression, selinexor-treated nucleus vs control nucleus",protein NDUFB10 (O96000),0.455
same,"Differential protein expression, selinexor-treated nucleus vs control nucleus",protein NEFH (P12036),2.836
same,"Differential protein expression, selinexor-treated nucleus vs control nucleus",protein NFXL1 (Q6ZNB6),0.432
same,"Differential protein expression, selinexor-treated nucleus vs control nucleus",protein NIPSNAP1 (Q9BPW8),2.979
same,"Differential protein expression, selinexor-treated nucleus vs control nucleus",protein NIPSNAP2 (O75323),3.521
same,"Differential protein expression, selinexor-treated nucleus vs control nucleus",protein NOB1 (Q9ULX3),3.222
same,"Differential protein expression, selinexor-treated nucleus vs control nucleus",protein NUDCD2 (Q8WVJ2),0.448
same,"Differential protein expression, selinexor-treated nucleus vs control nucleus",protein ORMDL2 (Q53FV1),0.428
same,"Differential protein expression, selinexor-treated nucleus vs control nucleus",protein PAM16 (Q9Y3D7),0.467
same,"Differential protein expression, selinexor-treated nucleus vs control nucleus",protein PARL (Q9H300),0.39
same,"Differential protein expression, selinexor-treated nucleus vs control nucleus",protein PCM1 (Q15154),0.441
same,"Differential protein expression, selinexor-treated nucleus vs control nucleus",protein PDHA1 (P08559),0.363
same,"Differential protein expression, selinexor-treated nucleus vs control nucleus",protein PDHA2 (P29803),0.376
same,"Differential protein expression, selinexor-treated nucleus vs control nucleus",protein PDHB (P11177),0.34
same,"Differential protein expression, selinexor-treated nucleus vs control nucleus",protein PDHX (O00330),0.384
same,"Differential protein expression, selinexor-treated nucleus vs control nucleus",protein PEX14 (O75381),0.428
same,"Differential protein expression, selinexor-treated nucleus vs control nucleus",protein PEX19 (P40855),100
same,"Differential protein expression, selinexor-treated nucleus vs control nucleus",protein PHACTR4 (Q8IZ21),0.01
same,"Differential protein expression, selinexor-treated nucleus vs control nucleus",protein PHB1 (P35232),0.37
same,"Differential protein expression, selinexor-treated nucleus vs control nucleus",protein PHB2 (Q99623),0.39
same,"Differential protein expression, selinexor-treated nucleus vs control nucleus",protein PIGO (Q8TEQ8),0.467
same,"Differential protein expression, selinexor-treated nucleus vs control nucleus",protein PIWIL1 (Q96J94),0.362
same,"Differential protein expression, selinexor-treated nucleus vs control nucleus",protein PLK1 (P53350),0.275
same,"Differential protein expression, selinexor-treated nucleus vs control nucleus",protein POLE2 (P56282),0.412
same,"Differential protein expression, selinexor-treated nucleus vs control nucleus",protein POLE (Q07864),0.403
same,"Differential protein expression, selinexor-treated nucleus vs control nucleus",protein POLRMST (O00411),0.409
same,"Differential protein expression, selinexor-treated nucleus vs control nucleus",protein PPARG (P37231),0.432
same,"Differential protein expression, selinexor-treated nucleus vs control nucleus",protein PRC1 (O43663),0.299
same,"Differential protein expression, selinexor-treated nucleus vs control nucleus",protein PRKCI (P41743),3.735
same,"Differential protein expression, selinexor-treated nucleus vs control nucleus",protein PRSS2 (P07478),0.437
same,"Differential protein expression, selinexor-treated nucleus vs control nucleus",protein PSAT1 (Q9Y617),0.464
same,"Differential protein expression, selinexor-treated nucleus vs control nucleus",protein PTER (Q96BW5),100
same,"Differential protein expression, selinexor-treated nucleus vs control nucleus",protein PTPN12 (Q05209),100
same,"Differential protein expression, selinexor-treated nucleus vs control nucleus",protein PTPN23 (Q9H3S7),0.376
same,"Differential protein expression, selinexor-treated nucleus vs control nucleus",protein PTPRJ (Q12913),0.01
same,"Differential protein expression, selinexor-treated nucleus vs control nucleus",protein PXMP2 (Q9NR77),0.372
same,"Differential protein expression, selinexor-treated nucleus vs control nucleus",protein RAB9A (P51151),100
same,"Differential protein expression, selinexor-treated nucleus vs control nucleus",protein RACGAP1 (Q9H0H5),0.428
same,"Differential protein expression, selinexor-treated nucleus vs control nucleus",protein RBCK1 (Q9BYM8),0.334
same,"Differential protein expression, selinexor-treated nucleus vs control nucleus",protein RETREG3 (Q86VR2),0.01
same,"Differential protein expression, selinexor-treated nucleus vs control nucleus",protein RIOK2 (Q9BVS4),3.696
same,"Differential protein expression, selinexor-treated nucleus vs control nucleus",protein RNASET2 (O00584),0.01
same,"Differential protein expression, selinexor-treated nucleus vs control nucleus",protein RNF14 (Q9UBS8),0.01
same,"Differential protein expression, selinexor-treated nucleus vs control nucleus",protein RPL36AL (Q969Q0),13.627
same,"Differential protein expression, selinexor-treated nucleus vs control nucleus",protein RPS29 (P62273),0.468
same,"Differential protein expression, selinexor-treated nucleus vs control nucleus",protein RRM2 (P31350),0.34
same,"Differential protein expression, selinexor-treated nucleus vs control nucleus",protein S100A7 (P31151),2.93
same,"Differential protein expression, selinexor-treated nucleus vs control nucleus",protein SCD (O00767),0.275
same,"Differential protein expression, selinexor-treated nucleus vs control nucleus",protein SDC1 (P18827),6.105
same,"Differential protein expression, selinexor-treated nucleus vs control nucleus",protein SDHC (Q99643),0.406
same,"Differential protein expression, selinexor-treated nucleus vs control nucleus",protein SERPINB12 (Q96P63),3.163
same,"Differential protein expression, selinexor-treated nucleus vs control nucleus",protein SFT2D3 (Q58719),0.01
same,"Differential protein expression, selinexor-treated nucleus vs control nucleus",protein SFXN4 (Q6P4A7),0.32
same,"Differential protein expression, selinexor-treated nucleus vs control nucleus",protein SH3PXD2B (A1X283),100
same,"Differential protein expression, selinexor-treated nucleus vs control nucleus",protein SLC1A4 (P43007),0.289
same,"Differential protein expression, selinexor-treated nucleus vs control nucleus",protein SLC1A5 (Q15758),0.457
same,"Differential protein expression, selinexor-treated nucleus vs control nucleus",protein SLC7A1 (P30825),0.314
same,"Differential protein expression, selinexor-treated nucleus vs control nucleus",protein SLC12A2 (P55011),0.459
same,"Differential protein expression, selinexor-treated nucleus vs control nucleus",protein SLC25A1 (P53007),0.445
same,"Differential protein expression, selinexor-treated nucleus vs control nucleus",protein SLC25A33 (Q9BSK2),0.442
same,"Differential protein expression, selinexor-treated nucleus vs control nucleus",protein SLC25A46 (Q96AG3),100
same,"Differential protein expression, selinexor-treated nucleus vs control nucleus",protein SLC29A1 (Q99808),0.316
same,"Differential protein expression, selinexor-treated nucleus vs control nucleus",protein SLC30A1 (Q9Y6M5),100
same,"Differential protein expression, selinexor-treated nucleus vs control nucleus",protein SLC38A2 (Q96QD8),0.01
same,"Differential protein expression, selinexor-treated nucleus vs control nucleus",protein SLC50A1 (Q9BRV3),0.431
same,"Differential protein expression, selinexor-treated nucleus vs control nucleus",protein SPINT1 (O43278),3.797
same,"Differential protein expression, selinexor-treated nucleus vs control nucleus",protein SQSTM1 (Q13501),14.425
same,"Differential protein expression, selinexor-treated nucleus vs control nucleus",protein ST14 (Q9Y5Y6),3.067
same,"Differential protein expression, selinexor-treated nucleus vs control nucleus",protein STAM2 (O75886),0.01
same,"Differential protein expression, selinexor-treated nucleus vs control nucleus",protein STING1 (Q86WV6),0.01
same,"Differential protein expression, selinexor-treated nucleus vs control nucleus",protein SYVN1 (Q86TM6),0.01
same,"Differential protein expression, selinexor-treated nucleus vs control nucleus",protein TBC1D5 (Q92609),0.366
same,"Differential protein expression, selinexor-treated nucleus vs control nucleus",protein TBK1 (Q9UHD2),100
same,"Differential protein expression, selinexor-treated nucleus vs control nucleus",protein TCF7 (P36402),0.411
same,"Differential protein expression, selinexor-treated nucleus vs control nucleus",protein TFAP4 (Q01664),0.279
same,"Differential protein expression, selinexor-treated nucleus vs control nucleus",protein THEM6 (Q8WUY1),0.415
same,"Differential protein expression, selinexor-treated nucleus vs control nucleus",protein TIMELESS (Q9UNS1),0.2
same,"Differential protein expression, selinexor-treated nucleus vs control nucleus",protein TIMM17A (Q99595),0.454
same,"Differential protein expression, selinexor-treated nucleus vs control nucleus",protein TIMM17B (O60830),0.263
same,"Differential protein expression, selinexor-treated nucleus vs control nucleus",protein TJP3 (O95049),0.45
same,"Differential protein expression, selinexor-treated nucleus vs control nucleus",protein TK1 (P04183),0.407
same,"Differential protein expression, selinexor-treated nucleus vs control nucleus",protein TMEM14A (Q9Y6G1),0.454
same,"Differential protein expression, selinexor-treated nucleus vs control nucleus",protein TMEM63A (O94886),0.449
same,"Differential protein expression, selinexor-treated nucleus vs control nucleus",protein TMEM201 (Q5SNT2),0.416
same,"Differential protein expression, selinexor-treated nucleus vs control nucleus",protein TNC (P24821),0.44
same,"Differential protein expression, selinexor-treated nucleus vs control nucleus",protein TPX2 (Q9ULW0),0.397
same,"Differential protein expression, selinexor-treated nucleus vs control nucleus",protein TSR1 (Q2NL82),4.385
same,"Differential protein expression, selinexor-treated nucleus vs control nucleus",protein TTYH3 (Q9C0H2),0.465
same,"Differential protein expression, selinexor-treated nucleus vs control nucleus",protein UBAC2 (Q8NBM4),0.457
same,"Differential protein expression, selinexor-treated nucleus vs control nucleus",protein UBE2G2 (P60604),0.425
same,"Differential protein expression, selinexor-treated nucleus vs control nucleus",protein VETFL (Q9Q8K4),100
same,"Differential protein expression, selinexor-treated nucleus vs control nucleus",protein VKORC1L1 (Q8N0U8),0.446
same,"Differential protein expression, selinexor-treated nucleus vs control nucleus",protein VTA1 (Q9NP79),0.387
same,"Differential protein expression, selinexor-treated nucleus vs control nucleus",protein YBX2 (Q9Y2T7),0.224
same,"Differential protein expression, selinexor-treated nucleus vs control nucleus",protein YBX3 (P16989),0.467
same,"Differential protein expression, selinexor-treated nucleus vs control nucleus",protein YTHDF2 (Q9Y5A9),0.415
same,"Differential protein expression, selinexor-treated nucleus vs control nucleus",protein ZFYVE26 (Q68DK2),0.083
same,"Differential protein expression, selinexor-treated nucleus vs control nucleus",protein m003.2L (Q77P93),100
same,"Differential protein expression, selinexor-treated nucleus vs control nucleus",protein m013L (Q9Q8S8),100
same,"Differential protein expression, selinexor-treated nucleus vs control nucleus",protein m026R (Q9Q8S0),3.612
same,"Differential protein expression, selinexor-treated nucleus vs control nucleus",protein m043L (Q9Q8Q3),100
same,"Differential protein expression, selinexor-treated nucleus vs control nucleus",protein m045L (Q9Q8Q1),100
same,"Differential protein expression, selinexor-treated nucleus vs control nucleus",protein m047R (B2CWF4),0.403
same,"Differential protein expression, selinexor-treated nucleus vs control nucleus",protein m054R (B2CWG1),100
same,"Differential protein expression, selinexor-treated nucleus vs control nucleus",protein m054R (K4J9W4),100
same,"Differential protein expression, selinexor-treated nucleus vs control nucleus",protein m057L (B2CWG4),0.01
same,"Differential protein expression, selinexor-treated nucleus vs control nucleus",protein m059R (E2CZV4),0.01
same,"Differential protein expression, selinexor-treated nucleus vs control nucleus",protein m061R (B2CWG8),0.01
same,"Differential protein expression, selinexor-treated nucleus vs control nucleus",protein m077L (B2CWI4),0.01
same,"Differential protein expression, selinexor-treated nucleus vs control nucleus",protein m078R (D2WN05),100
same,"Differential protein expression, selinexor-treated nucleus vs control nucleus",protein m086L (B2CWJ3),0.01
same,"Differential protein expression, selinexor-treated nucleus vs control nucleus",protein m086L (E2CZY1),0.01
same,"Differential protein expression, selinexor-treated nucleus vs control nucleus",protein m094R (Q9Q8K6),0.01
same,"Differential protein expression, selinexor-treated nucleus vs control nucleus",protein m096L (B2CWK3),100
same,"Differential protein expression, selinexor-treated nucleus vs control nucleus",protein m097R (Q9Q8K3),0.01
same,"Differential protein expression, selinexor-treated nucleus vs control nucleus",protein m122R (Q9Q8H9),100
same,"Differential protein expression, selinexor-treated nucleus vs control nucleus",protein m126R (E2CZL5),0.428
same,"Differential protein expression, selinexor-treated nucleus vs control nucleus",protein m140R (Q9Q8G2),0.425
same,"Differential protein expression, selinexor-treated nucleus vs control nucleus",protein m156R (B2CWR1),100
